Assay results from patent publication US12577262B2, “Functionalized gold carbene napthaquinone complexes for use in the treatment of cancer” (Board of Regents, The University of Texas System, priority 2019, dated 2026).
Counter-ions that a name gives are not always drawn.

Tested on: A549 human lung cancer cells
Assay: Fluorescence microscopy, cellular localisation, Examples 2 and 4
Type: cell-based
Conditions: 4-7 h, Mitotracker Red / Hoechst overlay

For `COc1cccc2c1C(=O)c1c(O)c3c(c(O)c1C2=O)C[C@@](O)(C(=O)CO)C[C@@H]3O[C@H]1C[C@H](N)[C@H](O)[C@H](C)O1` [Doxorubicin•HCl, Doxorubicin], the cellular localisation (listed as Doxorubicin·HCl) was “mainly the nucleus” and the cellular localisation (listed as doxorubicin) was “nuclear localization”.
